In PMC10175245:
These are yes or no findings as the source states them, for the method shown. In cells and extracts the contact can be indirect. Some binding calls cover weakened binding; strength is not graded here.

Sequences of proteins named here, by UniProt entry; tags and fusion partners are left off.
UniProt Q64373: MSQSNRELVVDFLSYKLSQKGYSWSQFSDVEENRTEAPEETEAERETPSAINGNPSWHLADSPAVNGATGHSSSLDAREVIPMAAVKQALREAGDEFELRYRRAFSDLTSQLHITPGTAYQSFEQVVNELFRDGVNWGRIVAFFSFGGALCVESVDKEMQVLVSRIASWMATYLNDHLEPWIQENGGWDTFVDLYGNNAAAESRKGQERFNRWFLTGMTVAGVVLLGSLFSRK
UniProt O88597: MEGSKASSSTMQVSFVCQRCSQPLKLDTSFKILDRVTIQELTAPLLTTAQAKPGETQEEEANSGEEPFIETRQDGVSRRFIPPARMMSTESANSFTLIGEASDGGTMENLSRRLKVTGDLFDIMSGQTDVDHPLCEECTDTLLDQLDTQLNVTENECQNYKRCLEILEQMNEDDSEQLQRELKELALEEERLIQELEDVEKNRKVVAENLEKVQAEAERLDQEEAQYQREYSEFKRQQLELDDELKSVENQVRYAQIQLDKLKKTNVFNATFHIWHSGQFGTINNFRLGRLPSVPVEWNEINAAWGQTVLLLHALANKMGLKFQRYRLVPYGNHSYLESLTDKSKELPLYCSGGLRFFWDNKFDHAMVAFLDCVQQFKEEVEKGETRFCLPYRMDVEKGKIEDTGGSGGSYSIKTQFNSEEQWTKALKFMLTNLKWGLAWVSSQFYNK

T1: p16^INK4a (mouse (endogenous in mouse beige adipocytes)) (UniProt P51480)
T1 sequence: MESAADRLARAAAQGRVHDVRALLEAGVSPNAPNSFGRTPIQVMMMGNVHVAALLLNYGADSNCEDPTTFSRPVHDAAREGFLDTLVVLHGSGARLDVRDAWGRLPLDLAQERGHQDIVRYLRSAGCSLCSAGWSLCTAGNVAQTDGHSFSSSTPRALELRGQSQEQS

T2: p19^ARF (mouse (endogenous in mouse beige adipocytes)) (UniProt Q64364)
T2 sequence: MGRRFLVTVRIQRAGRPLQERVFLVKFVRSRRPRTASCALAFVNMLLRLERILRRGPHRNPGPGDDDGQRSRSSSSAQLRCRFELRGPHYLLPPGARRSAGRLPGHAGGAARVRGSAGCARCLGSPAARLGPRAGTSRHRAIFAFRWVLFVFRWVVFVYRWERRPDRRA

B1: p19^ARF (protein, UniProt Q64364 1-169)
chain: MGRRFLVTVRIQRAGRPLQERVFLVKFVRSRRPRTASCALAFVNMLLRLERILRRGPHRNPGPGDDDGQRSRSSSSAQLRCRFELRGPHYLLPPGARRSAGRLPGHAGGAARVRGSAGCARCLGSPAARLGPRAGTSRHRAIFAFRWVLFVFRWVVFVYRWERRPDRRA

Legend:
Test in all cases: co-IP; Pierce crosslink magnetic IP/Co-IP kit; beige adipocyte lysate in IP lysis buffer incubated with Protein A magnetic beads conjugated with p16INK4a, p19ARF, BCL2L1 or IgG antibody at 4 °C overnight; eluted by heating in loading buffer, blotted; Fig. 7h in control and Cdkn2a^Ucp1 KO beige adipocytes after withdrawing external stimuli
[1] = target: T1, p16^INK4a (mouse (endogenous in mouse beige adipocytes))
[2] = target: T2, p19^ARF (mouse (endogenous in mouse beige adipocytes))
[3] = target: BCL2 like 1 (BCL2L1) (mouse (endogenous in mouse beige adipocytes)) (UniProt Q64373)

| Molecule | binding [1] | binding [2] | binding [3] |
| --- | --- | --- | --- |
| BCL2 like 1 (BCL2L1) (from UniProt Q64373 1-233) | no binding | binds |  |
| beclin 1 (BECN1) (from UniProt O88597 1-448) | no binding | binds | binds |
| B1 |  |  | binds |
